Data reported in PubChem BioAssay AID624297 (National Center for Advancing Translational Sciences (NCATS), 2012).
Screen size: about 340,000 compounds; about 6,200 (1.8%) were called active. This list was built around the results that the source calls inconclusive (neither active nor inactive); the mix of calls is not that of the screen. Calls come from the whole dose curve; as a rule, active = well fitted activation curve with a large enough effect; inconclusive = small, poorly fitted or top-dose-only effect; inactive = no such curve, though single readings can be large or run the other way. A potency beside an inconclusive call is a rough fit, not a confirmed value.

Test: A quantitative high throughput screen for small molecules that induce DNA re-replication in SW480 colon adenocarcinoma cells. For re-replication activation: % of control where 0% means no effect. Note: nearly all actives have a fitted effect of over 55% in size.
Conditions: Hoechst DNA content imaging, 48 h; re-replication activation: at 46.1 µM (top of the series) unless noted
How it was run: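 Readout is total intensity of Hoechst-stained nuclei, excited at 405 nm and collected at 500-530 nm. Compound treatment lasted 48 hr at 37 C in 5% CO2 before staining.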
Potency is the fitted concentration of half-maximal effect.

Row | SMILES | Potency | re-replication activation
1 | O=C(O)c1ccc(Nc2c3ccccc3nc3ccccc23)cc1 | inconclusive: 29.1 µM [activator, single point] | 
2 | O=C1c2ccccc2C(=O)c2c([N+](=O)[O-])ccc(O)c21 |  | inactive: -2.63%
3 | CN(CC(=O)Nc1ccc(Cl)c(C(F)(F)F)c1)C(=O)Cn1cc([N+](=O)[O-])ccc1=O |  | inactive: -11.7%
4 | COC(=O)C1=C(C)N(Cc2ccccc2)C(=NCc2ccccc2)N[C@H]1c1ccccc1 | inconclusive: 32.6 µM [activator, single point] | 
5 | Cc1ccc(/C=C2\SC(=S)N(CCCC(=O)Nc3cccc(C(=O)O)c3)C2=O)cc1 |  | inactive: -22%
6 | Cc1cccc(-c2cc3nc(C)c(C)c(NCCCn4ccnc4)n3n2)c1 | inconclusive: 29.1 µM [activator, single point] | 
7 | COC(=O)c1nc2nc(-c3cccs3)cc(C(F)(F)F)n2n1 | active: 0.517 µM | 
8 | COc1ccc(NC(=O)C2C3C=CC(O3)C2C(=O)O)cc1 (stereo unspecified) | inconclusive: 6.51 µM [activator, single point] | 
9 | O=C(NCC1CCCO1)c1cccs1 (stereo unspecified) |  | inactive: -5.32%
10 | Nc1c(C(=O)NCc2ccc3c(c2)OCO3)c2nc3ccccc3nc2n1CCCN1CCOCC1 | inconclusive: 0.58 µM [activator, partial curve, poor fit] | 
11 | Cn1nccc1C(=O)N1CCCC(C(=O)c2ccc(Oc3ccccc3)cc2)C1 (stereo unspecified) | inconclusive: 2.59 µM [activator, partial curve, poor fit] | 
12 | O=C1C(Cc2ccc(O)cc2)NC(=S)N1C1CCCCC1 (stereo unspecified) |  | inactive: -3.89%
13 | Cc1ccc(CNC(=O)Nc2ccc3c(c2)N(C)C(=O)CS3)cc1 |  | inactive: -14.7%
14 | CC/C(C)=N\Nc1nc(-c2cc3cc(OC)ccc3oc2=O)cs1 | inconclusive: 29.1 µM [activator, single point] | 
15 | Cc1ccc(C(C2=C(O)CC(C)(C)CC2=O)C2C(=O)CC(C)(C)CC2=O)s1 (stereo unspecified) | inconclusive: 29.1 µM [activator, partial curve, poor fit] | 
16 | COc1ccc(CCCC(=O)N/N=C/c2ccccc2OC)cc1 |  | inactive: -2.82%
17 | CC(=O)c1c(C)[nH]c(C(=O)NCCc2ccc(Cl)cc2)c1C |  | inactive: -15%
18 | O=C(NCCO)C(=O)Nc1cc2c3c(c1)CCC(=O)N3CCC2 |  | inactive: -4.16%
19 | N#CC1=C(N)N(c2ccccc2)C2=C(C(=O)CCC2)C1c1ccccc1 (stereo unspecified) | inconclusive: 23.1 µM [activator, partial curve, poor fit] | 
20 | Cc1cc(C(=O)Nn2cnnc2)cs1 | inconclusive: 6.51 µM [activator, partial curve, poor fit] | 
21 | CNc1nc(Sc2ccccc2)cc(C(F)(F)F)n1 | inconclusive: 16.4 µM [activator, partial curve, poor fit] | 

Copied from the list.
Entry for `Cc1ccc(C(C2=C(O)CC(C)(C)CC2=O)C2C(=O)CC(C)(C)CC2=O)s1` (stereo unspecified) under Potency: inconclusive: 29.1 µM [activator, partial curve, poor fit]
Entry for `Cn1nccc1C(=O)N1CCCC(C(=O)c2ccc(Oc3ccccc3)cc2)C1` (stereo unspecified) under Potency: inconclusive: 2.59 µM [activator, partial curve, poor fit]
